Measured values taken from US20210371379A1, “NOVEL SALT OF 4-({(4S)-1-(4-CARBAMIMIDOYLBENZOYL)-4-[4(METHYLSULFONYL)PIPERAZIN-1-YL]-L-PROLYL}AMINO) BENZOIC ACID AND NOVEL CRYSTAL FORM THEREOF” (ONO PHARMACEUTICAL CO., LTD., priority 2018, published 2021).
Some results were stated once for a whole list of compounds, not compound by compound.

Assay: Chemical stability test: residual rate measurement by HPLC after storage
Type: physicochemical
Settings: under both conditions
Procedure: The chemical stability of crystals of ditosylate, dibesylate, pentahydrate and monoacetate of Compound A was measured by the following method and conditions.
About 1.5 to 3 mg of a test compound was weighed in a lab tube and stored under the following conditions.
After storage, the residual rate (%) of the stored sample under each condition was calculated by HPLC based on the area percentage of main medicine of the sample stored at −20° C. In addition, appearance was visually observed and compared with the sample stored at −20° C. […]
Comparison object of each sample was stored at −20° C.
An evaluation sample (0.8 mg) was dissolved in a mixed solution of acetonitrile/100 mM NaClO4 […] about 0.8 mL (sample concentration: 1.0 mg/mL) acetonitrile/100 mmol/L NaClO4 aq. (pH3.0) (3/1) to prepare a solution of 1.0 mg/mL (concentration as salt).
Detector: Ultraviolet absorptiometer (measurement wavelength: 265 nm)
Column: SPELCO Ascentis Express (150 mm×4.6 mm, S-2.7 μm)
Column temperature: 25° C.
Mobile phase: Solution A: 100 mmol/L NaClO4 aq. (pH 3.0), Solution B: acetonitrile
Area measurement range: 34.6 minutes

Structure (SMILES)	residual rate [%]
CS(=O)(=O)N1CCN([C@H]2C[C@@H](C(=O)Nc3ccc(C(=O)O)cc3)N(C(=O)c3ccc(C(=N)N)cc3)C2)CC1.O=S(=O)(O)c1ccccc1 [Dibesylate, 4-({(4S)-1-(4-Carbamimidoylbenzoyl)-4-[4-(methylsulfonyl)piperazin-1-yl]-L-prolyl}amino) benzoic acid dibenzenesulfonate]	≥ 99
CS(=O)(=O)N1CCN([C@H]2C[C@@H](C(=O)Nc3ccc(C(=O)O)cc3)N(C(=O)c3ccc(C(=N)N)cc3)C2)CC1.Cc1ccc(S(=O)(=O)O)cc1 [Ditosylate, 4-({(4S)-1-(4-Carbamimidoylbenzoyl)-4-[4-(methylsulfonyl)piperazin-1-yl]-L-prolyl}amino) benzoic acid di(4-toluenesulfonate)]	≥ 99
